Assay results as given in the supplement of paper PMC3334620.
The full ranking holds about 33,000 sequences; the median of “E-score (-0.5 to 0.5)” is about -8e-05, and the highest 2% start at about 0.23. The list shows a part of the results.

molecular target: T1, Nrg2 (UniProt P38082); assay: PBM E-score (8-mer binding enrichment) (E-score (-0.5 to 0.5)); higher = stronger / more preferred TF binding; details: protein concentration: 100 nM; construct: GST-full length
T1 sequence: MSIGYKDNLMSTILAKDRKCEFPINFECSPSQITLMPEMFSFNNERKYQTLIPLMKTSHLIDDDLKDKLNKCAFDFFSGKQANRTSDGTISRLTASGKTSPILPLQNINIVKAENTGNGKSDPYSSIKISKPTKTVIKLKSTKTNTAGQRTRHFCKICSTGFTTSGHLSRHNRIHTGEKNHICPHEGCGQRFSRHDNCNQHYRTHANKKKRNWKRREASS
Procedure, shortened: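 Yeast transcription factors, full-length or as DNA-binding domains, were expressed with a GST tag using PURExpress in vitro transcription/translation. At about 100-200 nM they were applied to universal all-10-mer Agilent arrays, double-stranded by primer extension on fresh or once-stripped slides. Fluorescent anti-GST detected bound protein, and masliner normalised the scans. E-scores for ungapped eight-base words, pooled with reverse complements, came from the Universal PBM Analysis Suite.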

Sequence | PBM E-score
CTTATTCC | 0.0106
AGCTTCAC | 0.0099
TACCTGGA | 0.0424
ATACAGAC | 0.0805
ATAGAGAC | -0.0374
GTAGATCA | 0.196
GAGATAAC | 0.0987
CGAGTAGC | -0.0185
GTAAGTAA | -0.011
AGGCATAC | 0.0524
ACATTCAA | 0.069
AATAACCT | -0.0751
GAGTGTCC | 0.00608
AATGGCCC | -0.223
CGGAATGC | 0.133
ACGTCACG | -0.0893
CCATCATA | -0.108
GAGGTGAC | 0.133
AGCTTACC | -0.148
GAGACAAC | 0.16
AAAGCAGT | 0.201
CAGACCTG | -0.119
AACGAGGG | -0.0046
CTTATCTC | -0.0296
AGGTTAAT | -0.0899

6 entries drawn at random from those above, as already listed:
Sequence | PBM E-score
AAAGCAGT | 0.201
CCATCATA | -0.108
AGGTTAAT | -0.0899
ATAGAGAC | -0.0374
CTTATCTC | -0.0296
GAGGTGAC | 0.133

Individual results from the list:
GAGTGTCC – PBM E-score: 0.00608
ATACAGAC – PBM E-score: 0.0805
AGCTTACC – PBM E-score: -0.148
ATAGAGAC – PBM E-score: -0.0374

Continuation.

Sequence | PBM E-score
ACTCAGAA | 0.157
GCTGTACC | -0.0883
CCGGGACA | 0.00621
AAGGTGCG | -0.0555
AGGATTAG | -0.114
CGCACGCC | -0.0435
ATTTGTTC | 0.272
ACTCTCTG | 0.0221
GGTCGTAA | -0.089
AACTCTTA | 0.0494
GGCCCGAC | -0.0434
ATGTATTA | -0.041
CGCACCGC | -0.207
ATCGAGGA | 0.0639
GACATCGA | -0.206
GTTACGGA | -0.252
ACACTCAA | 0.152
TACTCGCA | 0.172
AAGCTACC | 0.0567
AATGCCAA | 0.156
ACCTGCCC | -0.061
AAACAAGC | 0.0481
AACGGTCC | -0.0665
GCTATACC | -0.0179
AGCACCTG | -0.127

Sequence | PBM E-score
CGCTCACC | 0.0628
ATCAGCAA | 0.0508
AAAGACCC | 0.117
ATGCTTGA | 0.116
TCGATCCA | -0.0926
ATGCGCGA | 0.00379
ATCACAAG | 0.0563
ACTGGAGA | -0.0547
AGGTTTAC | -0.13
AGAGGACT | -0.3
AAGTACAA | 0.0952
CTCCCCTC | -0.0594
CACGACAA | -0.033
GGGTATCA | 0.144
ATCCGATA | 0.00821
CTCTTTTC | -0.0184
CTGAGAAA | -0.0494
AAGATGCG | 0.19
CTCCCGGA | -0.111
AACACGAA | 0.205
GACGTGTA | -0.121
GAAGGCTA | -0.185
CTATGAAC | -0.0583
AACACCAC | -0.0785
GCTGAAAA | 0.114

Sequence | PBM E-score
CGGATCCA | 0.161
AGTAGTCA | -0.0218
GCGATCAC | -0.118
AAAAATAT | 0.101
CCAACCTC | 0.13
GGCTCAAA | -0.121
ACTCGCCC | -0.0739
CTTGGCGA | -0.26
AAGAGCTA | 0.125
CAAGGATG | -0.154
AGACCAAC | 0.0901
GTTGCAAC | 0.122
CTACATAA | -0.187
CATAGGCC | 0.027
ACTATTAC | 0.106
CCTGGAGC | -0.0529
CTAAAGTC | -0.22
TATAACCA | 0.0239
ACATTTGA | 0.142
TAAGCGAA | 0.0348
AATCTTGC | 0.0892
ACGGCCGG | -0.144
AGCCATTA | 0.116
ACCATCGA | 0.0748
GTCAGCAA | 0.149

Sequence | PBM E-score
ACACGTTC | -0.0112
TGACATCA | 0.232
AAGAAACC | 0.0186
TAATTAGA | 0.132
AATGCCGG | -0.00349
TAACCGTA | -0.121
GCTATTCA | 0.067
GGACCCAA | -0.00982
ATCCAGGG | 0.349
CGTCGCCA | 0.00082
CTGCCTAC | 0.0534
AGTCCGGG | -0.218
GCCAGCTA | -0.0352
GGCCGGAC | -0.0527
CGGGTGAA | 0.16
CCCGCGCG | 0.178
GAGAGAAA | 0.0525
GACTTTGC | 0.0651
AAAACATA | -0.0249
AGTATCTC | 0.038
AATACGTG | -0.0869
GACGGATC | -0.153
ATTGATTG | 0.142
ATAAATTG | 0.272
GCTTTAAC | 0.029

Sequence | PBM E-score
ACGCTATG | 0.133
CTAGGATA | -0.122
CGTGAACG | -0.219
CCATTCCC | 0.0857
AAAACGTA | -0.0659
CGTTCACC | -0.11
AACGGCTG | -0.167
AAATTGGC | -0.012
CCATACAC | 0.0831
AAGCCACG | -0.00093
AGCGCGAG | 0.0635
CTTAAAAG | -0.176
TAATCCGA | -0.0807
CGAGATAG | 0.0116
AAGTTAGA | 0.2
ACAAGGAG | 0.0537
ATTCGCAG | 0.216
ACAAGATG | 0.0775
AAGTGCAT | 0.00679
ACTATCTG | -0.0171
CCCTCCAA | 0.0557
AGGCTCAT | -0.141
ACCAGAAA | 0.041
TCGAAGAA | -0.0208
ACAGAAAT | 0.0336

Sequence | PBM E-score
CCCAGTAA | 0.0774
ACCTGTAA | 0.0427
CTTTATGC | 0.0879
GCGTTAAC | -0.0482
TTGTAAAA | -0.0338
ACATCGAG | -0.0644
ATTGGATC | 0.105
CGGGAGGC | -0.378
ACTAATCC | -0.0312
TGGTACAA | 0.0851
GCCTGCCC | -0.117
TATTATGA | 0.103
CTGAGTTA | 0.0184
AACCGCGG | 0.182
AAGCGCCT | -0.0308
GAGGGCCC | 0.151
CACTTTGA | -0.219
TAGGCATA | -0.0623
GCATTGGC | -0.284
GCAATGTA | -0.0648
ACCCCTGC | 0.066
CGAATTTA | 0.127
